Measurements taken from the supplement of paper PMC7666118.
The list shows a part of the results.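 How the source made its calls: active = dose-dependent thermal stabilisation significant by F-test of dose-response against flat model at 10% FDR; inactive = not significant.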

Amino acid sequences for entries named in this document (tags omitted). A change or cut given only in a name is not applied to a line headed by its entry.
UniProt Q06587: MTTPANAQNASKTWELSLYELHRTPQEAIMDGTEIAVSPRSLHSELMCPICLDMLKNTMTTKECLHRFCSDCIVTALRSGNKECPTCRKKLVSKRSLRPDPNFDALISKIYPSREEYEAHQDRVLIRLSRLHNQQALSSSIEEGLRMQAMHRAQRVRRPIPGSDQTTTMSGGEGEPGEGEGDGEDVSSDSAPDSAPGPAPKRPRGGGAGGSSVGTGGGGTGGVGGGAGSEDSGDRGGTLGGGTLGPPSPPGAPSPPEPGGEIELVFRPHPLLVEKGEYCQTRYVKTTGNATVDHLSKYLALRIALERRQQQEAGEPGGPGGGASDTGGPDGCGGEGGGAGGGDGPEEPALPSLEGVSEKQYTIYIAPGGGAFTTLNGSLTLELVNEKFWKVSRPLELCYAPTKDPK
UniProt Q9H0E3: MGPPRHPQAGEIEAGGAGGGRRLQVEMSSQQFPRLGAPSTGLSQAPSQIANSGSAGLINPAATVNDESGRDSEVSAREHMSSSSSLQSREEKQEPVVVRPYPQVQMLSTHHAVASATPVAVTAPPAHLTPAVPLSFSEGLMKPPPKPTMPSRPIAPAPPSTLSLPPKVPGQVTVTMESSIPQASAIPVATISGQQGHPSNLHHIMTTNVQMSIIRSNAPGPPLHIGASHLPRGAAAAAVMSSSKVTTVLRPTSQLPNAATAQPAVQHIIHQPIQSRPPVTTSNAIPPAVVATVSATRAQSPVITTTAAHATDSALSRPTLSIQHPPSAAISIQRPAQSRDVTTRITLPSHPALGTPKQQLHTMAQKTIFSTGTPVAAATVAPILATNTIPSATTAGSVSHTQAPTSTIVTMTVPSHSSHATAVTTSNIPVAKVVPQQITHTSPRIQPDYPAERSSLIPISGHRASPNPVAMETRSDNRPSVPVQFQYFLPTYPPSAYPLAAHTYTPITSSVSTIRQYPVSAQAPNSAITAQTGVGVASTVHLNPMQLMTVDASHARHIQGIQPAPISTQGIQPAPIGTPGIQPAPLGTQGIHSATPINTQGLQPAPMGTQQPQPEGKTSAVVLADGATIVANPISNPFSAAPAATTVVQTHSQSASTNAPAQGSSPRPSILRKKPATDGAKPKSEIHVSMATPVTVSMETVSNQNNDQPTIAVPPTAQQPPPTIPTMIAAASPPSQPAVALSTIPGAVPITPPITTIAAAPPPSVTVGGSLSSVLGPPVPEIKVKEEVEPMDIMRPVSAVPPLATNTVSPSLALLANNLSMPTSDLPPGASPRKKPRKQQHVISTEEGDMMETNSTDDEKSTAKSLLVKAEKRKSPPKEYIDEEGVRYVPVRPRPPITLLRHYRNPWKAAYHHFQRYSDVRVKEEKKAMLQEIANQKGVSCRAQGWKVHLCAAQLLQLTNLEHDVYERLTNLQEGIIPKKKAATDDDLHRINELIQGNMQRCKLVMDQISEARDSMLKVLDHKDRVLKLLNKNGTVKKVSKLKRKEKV
UniProt Q86UA6: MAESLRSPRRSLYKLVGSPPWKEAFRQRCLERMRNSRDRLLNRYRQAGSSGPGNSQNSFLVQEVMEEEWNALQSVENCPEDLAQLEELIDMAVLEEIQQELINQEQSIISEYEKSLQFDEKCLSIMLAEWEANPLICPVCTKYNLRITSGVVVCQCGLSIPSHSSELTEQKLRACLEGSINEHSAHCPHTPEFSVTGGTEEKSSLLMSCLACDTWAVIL
UniProt Q9Y6B6: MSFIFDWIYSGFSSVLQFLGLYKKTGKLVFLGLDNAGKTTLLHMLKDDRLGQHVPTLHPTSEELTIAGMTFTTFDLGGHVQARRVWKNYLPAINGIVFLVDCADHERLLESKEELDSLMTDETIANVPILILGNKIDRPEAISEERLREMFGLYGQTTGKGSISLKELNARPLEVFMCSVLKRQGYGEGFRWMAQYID
UniProt O75695: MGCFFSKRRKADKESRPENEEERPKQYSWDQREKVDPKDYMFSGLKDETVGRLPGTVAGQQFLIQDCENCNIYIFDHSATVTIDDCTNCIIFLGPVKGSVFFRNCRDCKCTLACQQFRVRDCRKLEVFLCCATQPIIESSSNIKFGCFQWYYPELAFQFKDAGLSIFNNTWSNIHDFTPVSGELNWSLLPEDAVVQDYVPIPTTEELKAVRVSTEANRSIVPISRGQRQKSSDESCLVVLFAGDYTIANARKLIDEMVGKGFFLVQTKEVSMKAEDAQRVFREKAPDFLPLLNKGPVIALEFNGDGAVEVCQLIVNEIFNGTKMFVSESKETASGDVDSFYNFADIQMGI
UniProt Q8N9R8: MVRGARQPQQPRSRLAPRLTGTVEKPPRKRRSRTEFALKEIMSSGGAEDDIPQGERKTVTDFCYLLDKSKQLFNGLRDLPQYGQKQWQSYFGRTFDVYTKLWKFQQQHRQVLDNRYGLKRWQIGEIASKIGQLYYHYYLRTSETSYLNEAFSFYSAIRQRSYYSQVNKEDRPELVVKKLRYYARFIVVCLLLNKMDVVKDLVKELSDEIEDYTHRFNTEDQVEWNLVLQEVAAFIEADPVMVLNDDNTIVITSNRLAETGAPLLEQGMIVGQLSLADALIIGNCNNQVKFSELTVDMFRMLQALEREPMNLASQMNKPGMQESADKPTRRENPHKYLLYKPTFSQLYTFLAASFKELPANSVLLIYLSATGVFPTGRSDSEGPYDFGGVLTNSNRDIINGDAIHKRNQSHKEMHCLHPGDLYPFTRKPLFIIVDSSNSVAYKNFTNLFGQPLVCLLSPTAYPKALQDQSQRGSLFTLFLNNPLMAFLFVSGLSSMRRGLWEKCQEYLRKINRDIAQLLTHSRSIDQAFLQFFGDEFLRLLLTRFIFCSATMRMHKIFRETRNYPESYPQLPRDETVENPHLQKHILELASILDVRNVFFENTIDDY
UniProt Q9P0P0: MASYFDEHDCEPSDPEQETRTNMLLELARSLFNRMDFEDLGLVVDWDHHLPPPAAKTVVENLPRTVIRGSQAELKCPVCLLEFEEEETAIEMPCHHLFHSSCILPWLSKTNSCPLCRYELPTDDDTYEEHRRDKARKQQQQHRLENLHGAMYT
UniProt Q96D71: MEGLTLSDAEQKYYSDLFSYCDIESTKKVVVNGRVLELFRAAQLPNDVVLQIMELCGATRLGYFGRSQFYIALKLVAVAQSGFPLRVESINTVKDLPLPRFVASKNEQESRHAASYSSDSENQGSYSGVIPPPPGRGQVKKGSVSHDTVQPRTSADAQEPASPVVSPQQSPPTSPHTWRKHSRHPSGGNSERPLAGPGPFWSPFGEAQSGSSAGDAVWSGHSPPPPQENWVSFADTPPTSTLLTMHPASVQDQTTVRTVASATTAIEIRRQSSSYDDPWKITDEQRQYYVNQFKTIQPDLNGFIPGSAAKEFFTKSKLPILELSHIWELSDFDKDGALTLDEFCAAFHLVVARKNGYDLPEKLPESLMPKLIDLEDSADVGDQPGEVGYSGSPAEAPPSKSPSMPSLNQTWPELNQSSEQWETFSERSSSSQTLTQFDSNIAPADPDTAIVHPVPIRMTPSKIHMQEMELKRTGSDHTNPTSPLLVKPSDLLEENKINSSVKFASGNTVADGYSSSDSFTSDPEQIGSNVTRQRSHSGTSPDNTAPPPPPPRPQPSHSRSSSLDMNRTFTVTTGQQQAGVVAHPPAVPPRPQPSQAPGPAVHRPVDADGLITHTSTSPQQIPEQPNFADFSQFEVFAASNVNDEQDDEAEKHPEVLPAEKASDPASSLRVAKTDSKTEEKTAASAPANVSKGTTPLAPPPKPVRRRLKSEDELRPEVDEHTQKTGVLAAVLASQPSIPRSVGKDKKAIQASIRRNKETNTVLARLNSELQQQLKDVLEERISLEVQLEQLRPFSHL
UniProt Q92599: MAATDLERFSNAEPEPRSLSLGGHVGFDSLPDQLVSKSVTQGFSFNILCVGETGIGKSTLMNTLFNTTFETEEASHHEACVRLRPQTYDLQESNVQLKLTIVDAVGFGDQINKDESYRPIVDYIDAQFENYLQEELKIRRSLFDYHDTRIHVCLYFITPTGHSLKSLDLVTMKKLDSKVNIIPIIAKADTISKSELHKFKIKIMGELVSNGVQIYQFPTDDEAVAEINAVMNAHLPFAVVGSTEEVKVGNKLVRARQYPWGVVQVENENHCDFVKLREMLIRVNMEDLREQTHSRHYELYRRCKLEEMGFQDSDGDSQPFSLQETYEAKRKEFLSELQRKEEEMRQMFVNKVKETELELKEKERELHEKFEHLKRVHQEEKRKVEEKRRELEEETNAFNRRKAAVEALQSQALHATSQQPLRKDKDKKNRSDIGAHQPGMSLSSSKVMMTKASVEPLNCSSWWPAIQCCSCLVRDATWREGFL
UniProt Q8WTS6: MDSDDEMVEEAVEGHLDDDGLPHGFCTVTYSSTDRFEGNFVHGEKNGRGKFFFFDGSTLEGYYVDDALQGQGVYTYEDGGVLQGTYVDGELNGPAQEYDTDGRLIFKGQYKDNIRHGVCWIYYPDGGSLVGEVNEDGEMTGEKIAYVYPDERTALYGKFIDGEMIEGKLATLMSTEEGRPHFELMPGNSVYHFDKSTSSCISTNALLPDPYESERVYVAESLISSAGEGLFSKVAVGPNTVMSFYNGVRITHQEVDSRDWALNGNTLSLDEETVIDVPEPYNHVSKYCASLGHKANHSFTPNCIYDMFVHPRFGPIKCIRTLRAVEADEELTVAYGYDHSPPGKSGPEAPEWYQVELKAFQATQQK
UniProt O43290: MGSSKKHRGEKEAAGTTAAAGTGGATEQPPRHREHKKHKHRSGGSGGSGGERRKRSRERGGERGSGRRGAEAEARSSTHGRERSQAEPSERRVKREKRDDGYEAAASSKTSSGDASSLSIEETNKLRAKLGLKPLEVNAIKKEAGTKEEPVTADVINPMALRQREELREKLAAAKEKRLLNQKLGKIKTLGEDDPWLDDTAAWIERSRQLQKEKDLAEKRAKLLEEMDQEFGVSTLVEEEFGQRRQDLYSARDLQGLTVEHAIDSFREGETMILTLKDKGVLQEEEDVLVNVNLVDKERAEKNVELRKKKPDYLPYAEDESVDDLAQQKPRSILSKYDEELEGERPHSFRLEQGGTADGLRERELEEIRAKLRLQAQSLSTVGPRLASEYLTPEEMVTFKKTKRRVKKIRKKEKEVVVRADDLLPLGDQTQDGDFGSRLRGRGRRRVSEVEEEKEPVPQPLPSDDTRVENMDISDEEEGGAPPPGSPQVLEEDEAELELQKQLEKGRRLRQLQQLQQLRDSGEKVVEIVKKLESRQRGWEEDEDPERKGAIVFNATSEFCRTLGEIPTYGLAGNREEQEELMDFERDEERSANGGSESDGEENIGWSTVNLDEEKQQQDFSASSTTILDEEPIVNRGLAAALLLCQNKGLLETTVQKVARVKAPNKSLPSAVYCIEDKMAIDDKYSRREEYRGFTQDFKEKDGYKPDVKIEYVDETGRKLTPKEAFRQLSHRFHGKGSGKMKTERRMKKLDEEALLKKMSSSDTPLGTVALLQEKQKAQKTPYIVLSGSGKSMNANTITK
UniProt O95486: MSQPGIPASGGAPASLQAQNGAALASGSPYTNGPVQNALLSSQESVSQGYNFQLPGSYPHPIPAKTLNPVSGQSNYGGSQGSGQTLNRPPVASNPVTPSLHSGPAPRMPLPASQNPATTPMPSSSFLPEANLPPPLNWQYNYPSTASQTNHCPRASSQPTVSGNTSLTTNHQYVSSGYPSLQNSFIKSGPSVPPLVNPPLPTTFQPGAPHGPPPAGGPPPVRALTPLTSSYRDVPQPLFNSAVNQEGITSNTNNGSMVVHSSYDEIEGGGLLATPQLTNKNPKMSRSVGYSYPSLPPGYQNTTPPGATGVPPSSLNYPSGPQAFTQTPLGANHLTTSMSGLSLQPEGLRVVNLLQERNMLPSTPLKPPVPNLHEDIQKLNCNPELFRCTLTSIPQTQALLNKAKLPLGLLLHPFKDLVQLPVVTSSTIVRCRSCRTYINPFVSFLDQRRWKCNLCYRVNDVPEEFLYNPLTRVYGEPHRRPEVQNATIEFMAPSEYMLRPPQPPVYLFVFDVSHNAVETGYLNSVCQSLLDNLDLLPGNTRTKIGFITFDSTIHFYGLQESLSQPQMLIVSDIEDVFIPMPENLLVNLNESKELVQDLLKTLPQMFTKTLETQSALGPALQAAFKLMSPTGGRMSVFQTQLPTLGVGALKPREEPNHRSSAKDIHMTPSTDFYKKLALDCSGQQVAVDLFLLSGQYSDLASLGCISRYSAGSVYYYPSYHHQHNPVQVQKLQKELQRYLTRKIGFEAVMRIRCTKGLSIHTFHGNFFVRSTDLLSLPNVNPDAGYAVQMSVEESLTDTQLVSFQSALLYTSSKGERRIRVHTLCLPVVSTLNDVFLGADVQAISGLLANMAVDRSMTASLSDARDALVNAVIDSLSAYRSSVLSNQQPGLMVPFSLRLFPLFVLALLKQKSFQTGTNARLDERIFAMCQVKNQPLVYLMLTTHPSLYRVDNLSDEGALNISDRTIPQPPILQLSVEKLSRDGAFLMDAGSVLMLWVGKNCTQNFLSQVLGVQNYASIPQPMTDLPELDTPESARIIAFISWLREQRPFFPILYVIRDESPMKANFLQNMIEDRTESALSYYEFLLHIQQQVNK

What follows are targets tested with Nc1nc2c(ncn2[C@@H]2O[C@H](COP(=O)(O)OP(=O)(O)OP(=O)(O)O)[C@@H](O)[C@H]2O)c(=O)[nH]1 (assay: dose-dependent thermal stabilisation call (2D-TPP, DLPTP, 10% FDR) (binary (1 = stabilised)); higher = stabilised by the compound). Settings: system: Jurkat gel-filtered lysate; concentration range 1-500 µM.
Description: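 2D thermal proteome profiling in gel-filtered Jurkat E6.1 lysate (2 mg/ml) treated with NaGTP (0, 1, 10, 100, 500 uM) for 10 min at room temperature, then heated 3 min at one of 12 temperatures (42-63.9 C). Soluble protein was quantified by TMT10 MS. The value is the DLPTP call of the paper: dose-dependent thermal stabilisation over all temperatures at 10% FDR (F-test of a dose-response against a flat model); one experiment, one call per tested protein.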

Target	dose-dependent thermal stabilisation call
RFTN1 (UniProt Q14699)	inactive: 0
RPL12 (UniProt P30050)	inactive: 0
RNASEH2A (UniProt O75792)	inactive: 0
RNF40 (UniProt O75150)	inactive: 0
RMND5A (UniProt Q9H871)	inactive: 0
RING1 (UniProt Q06587)	inactive: 0
RTCA (UniProt O00442)	active: 1
RUNX3 (UniProt Q13761)	inactive: 0
SAP130 (UniProt Q9H0E3)	inactive: 0
RPS6 (UniProt P62753)	active: 1
RPS12 (UniProt P25398)	inactive: 0
RPAIN (UniProt Q86UA6)	inactive: 0
SAR1B (UniProt Q9Y6B6)	inactive: 0
SEC31A (UniProt O94979)	inactive: 0
REPIN1 (UniProt Q9BWE0)	inactive: 0
RP2 (UniProt O75695)	active: 1
RNF114 (UniProt Q9Y508)	inactive: 0
SCAI (UniProt Q8N9R8)	active: 1
SFPQ (UniProt P23246)	inactive: 0
RNF181 (UniProt Q9P0P0)	inactive: 0

Target	dose-dependent thermal stabilisation call
RPE (UniProt Q96AT9)	inactive: 0
REPS1 (UniProt Q96D71)	inactive: 0
SATB1 (UniProt Q01826)	inactive: 0
SCAF11 (UniProt Q99590)	inactive: 0
SEPTIN8 (UniProt Q92599)	inactive: 0
SETD7 (UniProt Q8WTS6)	inactive: 0
REST (UniProt Q13127)	inactive: 0
SEC23A (UniProt Q15436)	active: 1
RRBP1 (UniProt Q9P2E9)	inactive: 0
RMI1 (UniProt Q9H9A7)	inactive: 0
RRM2 (UniProt P31350)	inactive: 0
SART1 (UniProt O43290)	inactive: 0
RFX1 (UniProt P22670)	inactive: 0
RNF31 (UniProt Q96EP0)	inactive: 0
RPAP1 (UniProt Q9BWH6)	inactive: 0
SART3 (UniProt Q15020)	active: 1
SEC24A (UniProt O95486)	active: 1
RPL6 (UniProt Q02878)	inactive: 0
SAC3D1 (UniProt A6NKF1)	inactive: 0
RPL10 (UniProt P27635)	active: 1
